Results on 11 compounds are retold here after the supplement of paper PMC12823440, “Inhibitors supercharge kinase turnover through native proteolytic circuits” (Nature, 2025).

The chains behind the UniProt entries cited, without tags or fusion partners.
UniProt P49137, whole entry, looked up: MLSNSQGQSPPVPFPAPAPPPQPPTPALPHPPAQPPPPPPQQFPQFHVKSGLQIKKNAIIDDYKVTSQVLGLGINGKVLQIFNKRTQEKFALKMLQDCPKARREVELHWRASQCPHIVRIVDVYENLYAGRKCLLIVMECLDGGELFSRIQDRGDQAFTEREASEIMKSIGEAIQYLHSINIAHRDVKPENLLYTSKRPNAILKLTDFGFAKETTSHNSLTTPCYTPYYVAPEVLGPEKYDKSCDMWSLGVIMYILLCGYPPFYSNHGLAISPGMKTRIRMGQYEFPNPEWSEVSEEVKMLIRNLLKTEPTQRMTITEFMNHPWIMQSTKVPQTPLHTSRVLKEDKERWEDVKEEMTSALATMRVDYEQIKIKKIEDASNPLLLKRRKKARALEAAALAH

The structures appear in SMILES notation. Counter-ions that a name gives are not always drawn. The list shows a part of the results. Hit calls seldom repeat between salt and free forms of one compound.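 Kinases were expressed as nanoluciferase fusions in K562 cells and luminescence was read every 4 h between 2 and 18 h as percent of control, DMSO set to 100% and a positive control to 0%. A time point counts as decreased when the signal drops significantly (2 sigma). The hit call is the authors' own, does not follow from the count of time points alone, and its rule is not shown.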

This assay deals with MAPKAPK2 (UniProt P49137). As to the kind of experiment: number of time points (of 5) at which kinase-Nluc abundance scored as decreased, DMSO-normalised (count); higher = more persistent destabilization. The settings on record: K562; 2-18 h.
Turning to `COc1ccc2c(c1O)OC(C)(C)c1c-2ccc2c1C(=O)N(c1ccc(C(=O)c3ccccc3)cc1)C2=O` [Ampkinone] (10 µM), the “number of time points” value was 0.

On to `CC1=C2C(=O)O[C@@H](c3ccoc3)[C@]2(C)CCC1` [Fraxinellone] (10 µM), for which the “number of time points” value stood at 0.

For `CS(=O)(=O)c1ccc(-c2cnc(N)c(C(=O)Nc3ccccc3)n2)cc1` (10 µM), the “number of time points” value worked out at 0.

On to `O=C(NC(NC(=S)Nc1ccc(F)c([N+](=O)[O-])c1)C(Cl)(Cl)Cl)C(c1ccccc1)c1ccccc1` (stereo unspecified) (10 µM), for which the “number of time points” value is 0.

Turning to `COc1cc(C(N)=O)nc(-c2cccc(C#C[C@]3(O)CCN(C)C3=O)c2)c1` (10 µM), the “number of time points” value was 0.

Turning to `O=C(Nc1cc(Oc2cc(F)c(NC(=O)C3(C(=O)Nc4ccc(F)cc4)CC3)cc2F)ccn1)C1CC1` [Altiratinib] (10 µM), the “number of time points” value worked out at 0.

Regarding `COc1ccc(Cl)cc1NC(=O)Nc1cc(C)nc2ccccc12` (2.5 µM), the “number of time points” value worked out at 0.

For the compound `COc1ccc(CC(=O)Nc2nc3c(s2)CCc2ccccc2-3)cc1OC` (10 µM), the “number of time points” value came out at 0.

`N[C@H](Cc1c[nH]c2ccccc12)C(=O)N/N=C/c1ccc2nccnc2c1` [Rhosin (hydrochloride)] (10 µM): the “number of time points” value was 0.

For the compound `CC(C)(C)c1ccc(S(=O)(=O)Nc2ccc(-n3ccnc3)cc2)cc1` (10 µM), the “number of time points” value stood at 0.

`Cc1ccc(-c2c(C(=O)CF)n(CCCO)c3ncnc(N)c23)cc1` (10 µM): the “number of time points” value was found to be 0.
